Results: PubChem BioAssay AID1671190 (National Center for Advancing Translational Sciences (NCATS), 2021)
The whole screen tested about 580,000 compounds, of which about 6,100 (1.1%) were called active. Inconclusive means that the source gave no clear call. Such entries were picked first, then a sample of the others. The call rests on the fitted dose curve; in most records, active means well fitted inhibition curve with a large enough effect; inconclusive means small, poorly fitted or top-dose-only effect, or another doubt; inactive means no such curve, though single readings can be large or run the other way. Potencies beside an inconclusive call are fits to weak or partial responses and may not hold up.

Amino acid sequences for entries named in this document (tags omitted).
UniProt P18054, whole entry, looked up: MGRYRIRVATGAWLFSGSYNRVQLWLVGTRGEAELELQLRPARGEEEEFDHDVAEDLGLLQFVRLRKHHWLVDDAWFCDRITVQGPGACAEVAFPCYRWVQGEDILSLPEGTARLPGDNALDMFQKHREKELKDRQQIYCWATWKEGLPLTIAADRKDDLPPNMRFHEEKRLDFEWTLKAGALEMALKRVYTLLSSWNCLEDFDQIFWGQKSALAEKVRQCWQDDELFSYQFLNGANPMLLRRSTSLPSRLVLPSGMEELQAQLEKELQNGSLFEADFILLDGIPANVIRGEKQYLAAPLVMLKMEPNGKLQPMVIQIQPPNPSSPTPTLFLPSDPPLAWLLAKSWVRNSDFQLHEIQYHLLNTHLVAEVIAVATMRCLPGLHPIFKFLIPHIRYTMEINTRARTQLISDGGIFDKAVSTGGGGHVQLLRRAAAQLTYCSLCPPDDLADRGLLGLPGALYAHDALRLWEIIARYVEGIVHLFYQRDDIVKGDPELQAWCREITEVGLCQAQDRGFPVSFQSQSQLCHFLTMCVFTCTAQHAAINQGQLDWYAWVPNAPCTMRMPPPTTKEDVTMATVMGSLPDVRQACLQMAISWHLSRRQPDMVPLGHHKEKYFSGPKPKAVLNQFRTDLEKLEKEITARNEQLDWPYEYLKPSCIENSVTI

Molecular target: Polyunsaturated fatty acid lipoxygenase ALOX12 (Homo sapiens) (UniProt P18054)
Test: Primary qHTS assay for inhibitors of human arachidonate 12S-lipoxygenase (ALOX12): Round 2
Details: purified 12hLO, xylenol orange hydroperoxide absorbance; activity change, negative = inhibition: at 108 µM (top of the series) unless noted
Procedure, shortened: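 Hydroperoxide product was detected by ferrous iron/xylenol orange as the 573 to 405 nm absorbance ratio. Arachidonic acid at 40 uM (final) was turned over for 30 min at room temperature by 150 nM human 12hLO, pH 7.0 Hepes buffer, after 15 min compound preincubation.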
On the % scale 0 is the no-effect control and ±100 the full control effect; potency means the concentration at half of the fitted maximal effect.

Row | Structure (SMILES) | Potency | activity change, negative = inhibition
1 | COC(=O)c1sc(N)c(C#N)c1C | active: 4.47 µM | 
2 | C/C(=N/Nc1ccc([N+](=O)[O-])cc1)c1ccc(C)cc1C | inconclusive: 50.1 µM [inhibitor, partial curve, poor fit] | 
3 | COc1cccc(NC(=O)Cn2c(=O)n(-c3ccc(C)cc3)c(=O)c3ccc(C(=O)NCc4ccco4)cc32)c1 |  | inactive: -26.9%
4 | Cc1ccc(S(=O)(=O)Oc2ccc(/C=C3\N=C(c4cccc(C)c4)OC3=O)cc2)cc1 | inconclusive: 50.1 µM [inhibitor, partial curve, poor fit] | 
5 | COc1ccc(CC(N)c2csc(NC(=O)c3cccc(OC(F)(F)F)c3)n2)cc1 (stereo not given) | inconclusive: 44.7 µM [inhibitor, partial curve, poor fit] | 
6 | CCN(CC)c1ccc(NC(=O)c2cccc(C)c2OC)c(C)c1 | inconclusive: 7.08 µM [inhibitor, full curve] | 
7 | COc1ccc(N2CCN(C(=O)Cc3ccc(-n4c(=O)[nH]c5ccccc5c4=O)cc3)CC2)cc1 |  | inconclusive: -32.1% [inhibitor]
8 | O=C(CCl)N1N=C(c2ccco2)CC1c1ccco1 (stereo not given) | inconclusive: 44.7 µM [inhibitor, partial curve, poor fit] | 
9 | CC(=O)C1=C(O)C(=O)N(c2nccs2)C1c1ccc(Br)cc1 (stereo not given) | inconclusive: 35.5 µM [inhibitor, partial curve, poor fit] | 
10 | CCCCNC(=O)[C@H]1CCC[C@H]1NC(=O)c1ccc(OC)nc1 |  | inactive: 52.7%
11 | CCc1nc(NCc2ccc3c(c2)OCO3)c2oc3ccccc3c2n1 | inconclusive: 39.8 µM [inhibitor, partial curve, poor fit] | 
12 | Cn1nccc1CCC(=O)N1CCN(C(=O)C2CCC2)[C@@H]2CS(=O)(=O)C[C@@H]21 |  | inactive: 7.66%
13 | Cc1nn(Cc2c(Cl)cccc2Cl)c(C)c1N |  | inactive: 3.84%
14 | O=C1CCCC2=C1C(c1ccc(O)c(O)c1)c1c(ccc3ncccc13)N2 (stereo not given) | inconclusive: 44.7 µM [inhibitor, partial curve, poor fit] | 
15 | COc1ccc(C2CCCN2C(=O)Nc2ccc(Cl)cc2)cc1OC (stereo not given) | inconclusive: 100 µM [inhibitor, single point] | 
16 | O=C1c2ccccc2C(Nc2cccc(C(F)(F)F)c2)N1Cc1ccco1 (stereo not given) | inconclusive: 89.1 µM [inhibitor, single point] | 
17 | O=C(COC(=O)c1ccc(Cl)c([N+](=O)[O-])c1)c1ccc2c(c1)OCCO2 |  | inactive: -5.87%
18 | Cc1cc(NC(=O)CN2CCCCC2C)no1 (stereo not given) | inconclusive: 2.51 µM [inhibitor, partial curve, poor fit] | 
19 | CCn1nnnc1SCC(=O)N1CCc2ccccc21 |  | inactive: 2.45%
20 | COc1ccc(CN2C(=O)C(n3cccc3)c3cc(OC)ccc32)cc1 (stereo not given) | inconclusive: 89.1 µM [inhibitor, single point] | 
21 | O=C(NC[C@H]1COCc2nc3cc(F)ccc3n21)C1CC1 | inconclusive: 31.6 µM [inhibitor, partial curve, poor fit] | 
22 | COc1ccc(CNC(=O)Cc2c(C)c3c(OC(C)=O)cc(OC(C)=O)cc3oc2=O)cc1OC |  | inactive: -8.27%
23 | CCOC(=O)CCSc1nc(-c2ccc3c(c2)OCO3)cc(C(F)(F)F)c1C#N | inconclusive: 28.2 µM [inhibitor, single point] | 

Three compounds already listed, arranged by count of non-hydrogen atoms, descending.
Row | Structure (SMILES) | Potency | activity change, negative = inhibition
3 | COc1cccc(NC(=O)Cn2c(=O)n(-c3ccc(C)cc3)c(=O)c3ccc(C(=O)NCc4ccco4)cc32)c1 |  | inactive: -26.9%
11 | CCc1nc(NCc2ccc3c(c2)OCO3)c2oc3ccccc3c2n1 | inconclusive: 39.8 µM [inhibitor, partial curve, poor fit] | 
18 | Cc1cc(NC(=O)CN2CCCCC2C)no1 (stereo not given) | inconclusive: 2.51 µM [inhibitor, partial curve, poor fit] | 

Going on with the list.

Row | Structure (SMILES) | Potency | activity change, negative = inhibition
24 | Fc1cccc(-c2cc3nc(-c4ccccc4)cc(N4CCC5(CC4)OCCO5)n3n2)c1 |  | inactive: 0%
25 | COc1ccc(CCNC(=O)C(=O)NCC(c2ccco2)S(=O)(=O)c2ccc(F)cc2)cc1 (stereo not given) | inconclusive: 112 µM [inhibitor, single point] | 
26 | N#Cc1c(C(F)(F)F)cc(-c2ccccc2Cl)[nH]c1=O | inconclusive: 44.7 µM [inhibitor, partial curve, poor fit] | 
27 | Cc1cccc(NC(=O)C(C#N)C(=O)CCc2ccccc2)c1 (stereo not given) | active: 31.6 µM | 
28 | Cc1ccc(Sc2ccc(/C=C3/C(=O)NN(c4ccccc4)C3=O)o2)cc1 | inconclusive: 4.47 µM [inhibitor, single point] | 
29 | COc1cccc(-c2csc(NC3OC(=O)c4c3ccc(OC)c4OC)n2)c1 (stereo not given) | inconclusive: 35.5 µM [inhibitor, partial curve, poor fit] | 
30 | CC(=O)N1CCSc2ccc(S(=O)(=O)Nc3ccccc3C)cc21 |  | inactive: 10.8%
31 | C=CCN1c2ccccc2[C@]23C[C@@H](C(=O)OC)N(C(=O)c4ccc(Br)cc4)C2=NC(C(=O)OC)=C(C(=O)OC)[C@H]13 |  | inactive: 5.14%
32 | N#Cc1ncn(CCC(=O)Nc2ccc(F)c(F)c2)n1 |  | inactive: -16.6%
33 | CCn1c(/C=C2\C(=O)N(C)c3ccccc32)nc2ccccc2c1=O |  | inactive: -4.31%
34 | Cc1cc(NC(=O)COC(=O)c2cc([N+](=O)[O-])ccc2N2CCOCC2)ccc1Br | inconclusive: 79.4 µM [inhibitor, partial curve, poor fit] | 
35 | COc1ccc(-c2cc(O)cc(O)c2)cc1 | inconclusive: 89.1 µM [inhibitor, partial curve, poor fit] | 
36 | CCCn1nc(C(=O)Nc2cc(S(=O)(=O)N3CCCCC3)ccc2C)c2ccccc2c1=O | inconclusive: 50.1 µM [inhibitor, single point] | 
37 | O=[N+]([O-])c1ccc(CN2CCN(c3ccc4ccccc4n3)CC2)cc1 | active: 50.1 µM | 
38 | c1ccc(C(c2nnnn2C2CCCC2)N2CCCCCC2)nc1 (stereo not given) |  | inactive: 1.62%
39 | CCCN1C(=O)C(Cc2nc3ccccc3c(=O)n2C)c2cc(Br)ccc21 (stereo not given) |  | inactive: 3.5%
40 | Cc1cc(NC(=O)CN2CCN(c3cccc(Cl)c3)CC2)no1 |  | inactive: 0%
41 | CC(C)c1ccc2cc(C(=O)N(Cc3ccco3)C3CC3)[nH]c2c1 | inconclusive: 44.7 µM [inhibitor, partial curve] | 
42 | Cc1c(C(=O)N2CCN(c3cccc(Cl)c3)CC2)cccc1[N+](=O)[O-] |  | inactive: -12.4%
43 | COCCCNCC(O)COc1ccccc1F (stereo not given) | inconclusive: 11.2 µM [inhibitor, full curve, poor fit] | 
44 | Cc1cccc(CC(=O)Nc2cccnc2)c1 |  | inactive: -1.12%
45 | CC1CCN(C(=O)Cn2cc3c(n2)CCCC3)CC1 | inconclusive: 5.01 µM [inhibitor, full curve, poor fit] | 
